PubChem BioAssay AID743454, Peter MacCallum Cancer Centre | 2014
Purpose: 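Search for knock-downs that restore vorinostat killing in resistant colon cancer cells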 (primary screen). Cell system: human HCT116-VR colon cancer cells, selected for vorinostat resistance. Reagent: siRNA pool against human genes, 40 nM siRNA pool. Duration: vorinostat for 24 h, read-out about 72 h after transfection. Challenge: vorinostat at 2.5 µM final. Measured: 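Cell viability by CellTiter-Fluor and caspase 3/7 activity by luminescence, each scaled to mock wells per plate, duplicates averaged, then robust z-scored over all plates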. Scale: viability robust z-score: higher = more viable cells than screen typical; caspase robust z-score: higher = more caspase 3/7 activity than screen typical. Active means: 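a knock-down is a hit when classed RV1 or RV2 for lowered viability, or CA1 or CA2 for caspase activation; those lethal without drug were dropped; hits were retested singly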.
Shown is one part, drawn at random, of about 18,000 deposited reagents. 450 of all reagents (2.5%) were called active. 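Single biological run; no consistent viability z cut-off exists, so the class columns, not z-scores, define the calls.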

| Gene | PubChem SID | viability hit class | caspase hit class | viability robust z-score | caspase robust z-score | Outcome |
| --- | --- | --- | --- | --- | --- | --- |
| GDF3 (growth differentiation factor 3) | SID134310649 | no change | no change | 0.63 | 1.12 | inactive |
| ARG2 (arginase 2) | SID152148761 | no change | no change | -0.75 | 0.67 | inactive |
| GALK1 (galactokinase 1) | SID56479189 | RV2 (reduced viability) | no change | -3.66 | 4.09 | active |
| CAND1 (cullin associated and neddylation dissociated 1) | SID134319598 | no change | no change | 0.39 | 1.68 | inactive |
| EBF1 (EBF transcription factor 1) | SID134316164 | no change | no change | -0.62 | -0.91 | inactive |
| SLC16A5 | SID135621365 | no change | no change | -0.68 | 4.15 | inactive |
| PNPLA8 (patatin like domain 8, phospholipase A2) | SID135621911 | no change | no change | 0.4 | -0.04 | inactive |
| DRC7 (dynein regulatory complex subunit 7) | SID152150631 | no change | no change | -0.09 | -0.13 | inactive |
| PUS7L (pseudouridine synthase 7 like) | SID152151520 | no change | no change | -1.02 | -1.17 | inactive |
| NUP133 (nucleoporin 133) | SID135622504 | RV2 (reduced viability) | CA2 (caspase activation) | -3.43 | 5.65 | active |
| EPB41L3 (erythrocyte membrane protein band 4.1 like 3) | SID134319376 | no change | no change | -1.31 | -1 | inactive |
| CLCN1 (chloride voltage-gated channel 1) | SID135621152 | no change | no change | -1.25 | -0.22 | inactive |
| DBP (D-box binding PAR bZIP transcription factor) | SID134321607 | no change | no change | 0.27 | 0.02 | inactive |
| SLC6A17 | SID152152622 | no change | no change | -0.15 | -0.78 | inactive |
| MDH1B (malate dehydrogenase 1B) | SID152148843 | no change | no change | -0.18 | -1.25 | inactive |
| GLT6D1 (glycosyltransferase 6 domain containing 1) | SID135623749 | no change | no change | 0.04 | -0.62 | inactive |
| PATE1 (prostate and testis expressed 1) | SID135621665 | no change | no change | 0.1 | -0.26 | inactive |
| GGA1 | SID135622593 | no change | no change | -0.55 | -0.24 | inactive |
| RPAP1 (RNA polymerase II associated protein 1) | SID134321268 | no change | no change | -0.07 | 1.56 | inactive |
| OR7G1 (olfactory receptor family 7 subfamily G member 1) | SID135624428 | no change | no change | -0.8 | 0.91 | inactive |
| CHRM2 (cholinergic receptor muscarinic 2) | SID152149575 | no change | no change | -0.68 | -0.74 | inactive |
| ZNRD2 (zinc ribbon domain containing 2) | SID134323858 | no change | no change | 0.31 | 2.55 | inactive |
| TMPRSS11A (transmembrane serine protease 11A) | SID152151716 | no change | no change | -0.27 | -0.09 | inactive |

3 entries from above, reformatted:
SLC6A17 [SID152152622]
- viability hit class: no change
- caspase hit class: no change
- viability robust z-score: -0.15
- caspase robust z-score: -0.78
- Outcome: inactive

MDH1B (malate dehydrogenase 1B) [SID152148843]
- viability hit class: no change
- caspase hit class: no change
- viability robust z-score: -0.18
- caspase robust z-score: -1.25
- Outcome: inactive

GLT6D1 (glycosyltransferase 6 domain containing 1) [SID135623749]
- viability hit class: no change
- caspase hit class: no change
- viability robust z-score: 0.04
- caspase robust z-score: -0.62
- Outcome: inactive
